Settings: room temperature, 24 h

CC(=O)O[C@H]1C(=O)[C@@]2(C)[C@H]([C@H](OC(=O)c3ccccc3)[C@]3(O)C[C@H](OC(=O)[C@H](O)[C@@H](NC(=O)c4ccccc4)c4ccccc4)C(C)=C1C3(C)C)[C@]1(OC(C)=O)CO[C@@H]1C[C@@H]2O [PX, Paclitaxel]
Solubility in different Miglyols (Miglyol 808, 810, 812, 818): 3.2–3.5 µg/mg Miglyol
Solubility in Miglyol 812: 3.2 ± 0.1 µg/mg Miglyol

— paper PMC3522796 (Cancer letters, 2012)
